According to PubChem BioAssay AID662 (National Center for Advancing Translational Sciences (NCATS), 2007):
Some of the results follow. The main result of the screen is listed elsewhere. These columns were measured beside it and carry no call. The list favours compounds with an active or inconclusive main result. Words in brackets tell the shape of the fitted curve; partial curves, single points and poor fits give uncertain potencies.

Assay: Cell signaling CRE-BLA (Fsk stim)
Settings: CHO CRE-bla reporter (cAMP response element driving beta-lactamase), forskolin EC10, beta-lactamase ratio; measured here: 460 nm blue channel
Procedure, shortened: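 Using CellSensor CRE-bla CHO cells in Opti-MEM with 0.5% dialyzed FBS, compounds were titrated with EC10 NKH 477 for 3 h at 37 °C. CCF4 ratio (460/530 nm) gave %Activity; AC50 derived.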

| SMILES | AC50 |
| --- | --- |
| Cc1cc(C)n2nc(SCc3nc4ccccc4[nH]3)nc2n1 | 1 µM [rising, partial curve] |
| CCNc1ncc2nc(-c3ccc(OC)cc3)c(=O)n(Cc3ccc(F)cc3)c2n1 | 0.794 µM [rising, full curve] |
| COc1ccc(C(=O)COC(=O)CN2C(=O)C3C4C=CC(C4)C3C2=O)cc1 (stereo not drawn) | 25.1 µM [rising, single point] |
| CCCn1c(=O)c2[nH]c(C3CCCC3)nc2n(CCC)c1=O | 5.01 µM [rising, partial curve] |
| CC1(C)Cc2ccccc2-c2nnc(SCc3ccc(C#N)cc3)n21 | 12.6 µM [rising, single point] |
| COc1ccc(CCNc2oc(COc3ccc(Br)cc3)nc2C#N)cc1OC | 10 µM [falling, single point] |
| O=C(Nc1nc2c(s1)CCCC2)c1ccc2ncsc2c1 | 10 µM [rising, partial curve] |
| Cc1ccccc1C(=O)c1cccn1CC(=O)NCC1CCCO1 (stereo not drawn) | 20 µM [rising, single point] |
| CC(C)Cn1cnc2c(SCc3ccc(Cl)cc3Cl)nc(N)nc21 | 3.98 µM [rising, partial curve] |
| COC(=O)c1c(C(=O)OC)c2oc3ccccc3n2c1Cl | 12.6 µM [rising, partial curve] |
| O=C(COc1ccc2c3c(c(=O)oc2c1)CCC3)NC1CCCCC1 | 25.1 µM [rising, single point] |
| Cn1c(=O)c(-c2cccs2)nc2cnc(N3CCOCC3)nc21 | 5.01 µM [rising, partial curve] |
| Cc1ccc(-c2nn(-c3ccccc3)cc2CN(Cc2ccccc2)C(=O)CCC(=O)O)o1 | 20 µM [rising, single point] |
| Cc1ccc(Cn2nnc3c(=O)n(CC(=O)N4CCN(c5ccccc5)CC4)cnc32)cc1 | 0.00631 µM [falling, full curve] |
| CCOC(=O)C1=C(C)NC2=C(C(=O)C(C(=O)OCC)C(c3ccco3)C2)C1c1ccccn1 (stereo not drawn) | 12.6 µM [rising, partial curve] |
| COC(=O)c1c(NC(=O)CN2CCOCC2)sc2c1CCC(C)C2 (stereo not drawn) | 5.01 µM [rising, single point] |
| COc1cccc(Nc2ncc3nc(-c4cccs4)c(=O)n(-c4ccccc4)c3n2)c1 | 1.58 µM [rising, full curve] |
| COc1ccc(C2c3c(oc4ccccc4c3=O)C(=O)N2c2ccc(C)cn2)cc1OC (stereo not drawn) | 10 µM [rising, partial curve] |
| Cc1c(C(=O)Nc2ccc3c(c2)OCCO3)sc2nc(-c3ccccc3)cn12 | 15.8 µM [falling, single point] |
| Cc1cc(OCc2nc(-c3cccnc3)no2)c(C)cc1Br | 0.0316 µM [rising, full curve, poor fit] |
| N#C[C@H]1CN[C@H](N)N[C@@H]1N | 0.0631 µM [rising, full curve, poor fit] |

| SMILES | AC50 |
| --- | --- |
| CCc1c(C)sc(NC(=O)c2ccc(Br)o2)c1C(=O)OC | 10 µM [rising, partial curve] |
| Cc1ccnc(Sc2nc3c(c(=O)[nH]c(=O)n3C)n2CCCc2ccccc2)n1 | 10 µM [rising, single point] |
| CCNc1ncc2nc(-c3ccc(Cl)cc3)c(=O)n(C3CC3)c2n1 | 3.98 µM [rising, partial curve] |
| COc1ccc(C(c2sc3ncnn3c2O)N2CCN(c3ccccc3F)CC2)cc1OC (stereo not drawn) | 7.94 µM [rising, partial curve] |
| COc1cc(-c2nc(S(=O)(=O)c3ccc(C)cc3)c(N3CCOCC3)o2)cc(OC)c1OC | 1.26 µM [rising, full curve] |
| O=C(Nc1cccc(-c2nc3cc(Cl)ccc3o2)c1)C1CCCO1 (stereo not drawn) | 10 µM [rising, partial curve] |
| C/C(N)=C(/C#N)C(=O)CSc1nnc(Nc2cccc(C)c2C)s1 | 3.98 µM [rising, single point] |
| COc1ccc(-c2nc3cnc(N4CCOCC4)nc3n(CCc3ccccc3)c2=O)cc1 | 3.16 µM [rising, partial curve] |
| Cc1c(-c2ccc(Cl)cc2)noc1C1CCN(CCc2ccccc2)CC1 | 25.1 µM [falling, single point] |
| O=c1c(-c2ccc(F)cc2)nc2cnc(Nc3ccccc3)nc2n1C[C@H]1CCCO1 | 0.2 µM [rising, full curve] |
| Cc1nc2cnc(Oc3cccc(Cl)c3)nc2n(Cc2ccc(F)cc2)c1=O | 5.01 µM [rising, partial curve] |
| CCNc1nc(Oc2ccc(=O)n(C)n2)nc(N2CCOCC2)n1 | 20 µM [rising, single point] |
| COc1ccccc1NC(=O)c1oc2ccccc2c1NC(=O)c1ccco1 | 10 µM [rising, single point] |
| C=C(C)Cn1c(N2CCCC2)nc2c1c(=O)[nH]c(=O)n2C | 10 µM [rising, partial curve] |
| O=[n+]1c2c(n([O-])c3cc(Br)ccc31)CCC2 | 25.1 µM [falling, single point] |
| CCCc1ccc(C(=O)CCC(=O)O)cc1 | 0.00398 µM [falling, full curve, poor fit] |
| COc1ccc(CNC(=O)c2noc3c2CCCCC3)cc1 | 5.01 µM [rising, single point] |
| O=C(NCc1ccco1)c1ccccc1Nc1ccc(F)cc1 | 3.98 µM [falling, partial curve] |
| Cc1nc(SCC(=O)N(C)Cc2ccco2)c2c(C)c(C)sc2n1 | 10 µM [rising, partial curve] |
| O=C(Nc1ccncc1)c1cc2ccccc2oc1=O | 0.0794 µM [rising, partial curve] |
| CC(NS(=O)(=O)c1ccc(Cl)cc1)C(c1cccs1)N1CCN(C)CC1 (stereo not drawn) | 25.1 µM [falling, single point] |

Ordered by heavy-atom count (ascending): 3 of the compounds above

| SMILES | AC50 |
| --- | --- |
| C=C(C)Cn1c(N2CCCC2)nc2c1c(=O)[nH]c(=O)n2C | 10 µM [rising, partial curve] |
| Cc1nc(SCC(=O)N(C)Cc2ccco2)c2c(C)c(C)sc2n1 | 10 µM [rising, partial curve] |
| COc1ccccc1NC(=O)c1oc2ccccc2c1NC(=O)c1ccco1 | 10 µM [rising, single point] |

(next part)

| SMILES | AC50 |
| --- | --- |
| CC1(C)O[C@H]2C[C@@H]3[C@H]4CCC5=CC(=O)CC[C@@]5(C)[C@]4(F)[C@@H](O)C[C@@]3(C)[C@@]2(C(=O)CCl)O1 | 12.6 µM [falling, single point] |
| Cc1cccn2c(=O)c(C=Nc3ccccc3)c(NCc3ccco3)nc12 | 10 µM [rising, partial curve] |
| COc1ccc(C2C(=O)N(C3CCCCC3)CC(=O)N2Cc2ccco2)cc1 (stereo not drawn) | 2.51 µM [falling, single point] |
| CN(C)c1ncc2nc(-c3ccc(Cl)cc3)c(=O)n(C[C@H]3CCCO3)c2n1 | 3.98 µM [rising, partial curve] |
| CC(=O)O[C@H]1C(=O)[C@@]2(C)[C@H]([C@H](OC(=O)c3ccccc3)[C@]3(O)C[C@H](OC(=O)[C@H](O)[C@@H](NC(=O)c4ccccc4)c4ccccc4)C(C)=C1C3(C)C)[C@]1(OC(C)=O)CO[C@@H]1C[C@@H]2O | 0.0794 µM [rising, full curve, poor fit] |
| COc1ccc2[nH]cc(CCNc3cc(-c4cccc(C#N)c4)ncn3)c2c1 | 10 µM [rising, partial curve, poor fit] |
| CCOC(=O)c1c(-c2cccs2)csc1NC(=O)CN1CCOCC1 | 10 µM [rising, partial curve] |
| COc1ccc(N(C)S(=O)(=O)c2cccc(C(=O)Nc3ccc(-n4cnnn4)cc3)c2)cc1 | 25.1 µM [falling, single point] |
| CCCn1c(N)c(C(=O)COC(=O)c2c(C)noc2C)c(=O)n(C)c1=O | 5.01 µM [falling, single point] |
| COC(=O)c1ccc(C2CC(=O)Nc3cc(OC)c(OC)cc32)cc1 (stereo not drawn) | 12.6 µM [rising, partial curve, poor fit] |
| O=C1CC(Sc2nnc(-c3ccccc3O)o2)C(=O)N1c1ccccc1 (stereo not drawn) | 25.1 µM [falling, single point] |
| Cc1cc(C)cc(-n2cc3c(=O)n(C)c(=O)n(C)c3c2)c1 | 15.8 µM [rising, partial curve] |
| Nc1nc(CN2CCN(c3ccccc3F)CC2)nc(Nc2ccccc2)n1 | 10 µM [falling, partial curve] |
| COc1ccc2nc3c(cc2c1)c(NC(=O)C1CCCO1)nn3CC(C)C (stereo not drawn) | 10 µM [rising, partial curve] |
| COc1nc(-c2ccccc2)cc(-c2ccc(OC)c(OC)c2)n1 | 0.158 µM [rising, partial curve] |
| CC[C@H](C)[C@@H]1O[C@]2(CC[C@@H]1C)C[C@H]1C[C@H](CC=C(C)[C@@H](O[C@H]3C[C@H](OC)[C@H](O[C@H]4C[C@H](OC)[C@H](O)[C@H](C)O4)[C@H](C)O3)[C@@H](C)C=CC=C3CO[C@@H]4[C@@H](O)C(C)=C[C@H](C(=O)O1)[C@@]34O)O2 | 15.8 µM [falling, partial curve] |
| CC(=O)c1c(C(C)=O)c(C)n(CCCCn2c(C)c(C(C)=O)c(C(C)=O)c2C)c1C | 0.00631 µM [falling, full curve, poor fit] |
| Cc1nn(-c2nc3ccccc3s2)c(N)c1-c1ccc(Cl)cc1 | 0.0398 µM [rising, full curve, poor fit] |
| O=S(=O)(NC1CCCCC1)c1ccc(S(=O)(=O)N2CCN3CCCC3C2)cc1 (stereo not drawn) | 3.98 µM [falling, single point] |
| CC1CCCC(C)N1C(=O)COC(=O)c1ccc[nH]c1=O (stereo not drawn) | 3.98 µM [falling, partial curve] |
| Cn1nc(CC(=O)Nc2ccc(N3CCN(C(=O)OC(C)(C)C)CC3)cc2)c2ccccc2c1=O | 25.1 µM [falling, single point] |
